# Data as given in the supplement of paper PMC10849652.
# Sequences of proteins named here, by UniProt entry; tags and fusion partners are left off. A change or cut given only in a name is not applied to a line headed by its entry.
# UniProt Q6NUT3: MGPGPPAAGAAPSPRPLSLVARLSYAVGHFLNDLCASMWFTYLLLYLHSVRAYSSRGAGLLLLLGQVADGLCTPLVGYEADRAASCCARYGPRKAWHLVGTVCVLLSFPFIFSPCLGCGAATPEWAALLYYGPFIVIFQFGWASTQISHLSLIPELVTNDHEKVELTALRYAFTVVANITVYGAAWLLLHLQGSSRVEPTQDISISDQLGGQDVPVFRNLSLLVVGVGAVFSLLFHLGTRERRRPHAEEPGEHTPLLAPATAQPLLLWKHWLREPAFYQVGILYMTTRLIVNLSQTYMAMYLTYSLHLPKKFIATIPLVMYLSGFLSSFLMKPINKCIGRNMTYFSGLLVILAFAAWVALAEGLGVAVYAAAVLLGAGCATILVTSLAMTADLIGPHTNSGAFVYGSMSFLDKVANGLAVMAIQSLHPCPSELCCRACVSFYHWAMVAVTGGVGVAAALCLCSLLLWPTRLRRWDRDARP
# UniProt Q8N6Q8: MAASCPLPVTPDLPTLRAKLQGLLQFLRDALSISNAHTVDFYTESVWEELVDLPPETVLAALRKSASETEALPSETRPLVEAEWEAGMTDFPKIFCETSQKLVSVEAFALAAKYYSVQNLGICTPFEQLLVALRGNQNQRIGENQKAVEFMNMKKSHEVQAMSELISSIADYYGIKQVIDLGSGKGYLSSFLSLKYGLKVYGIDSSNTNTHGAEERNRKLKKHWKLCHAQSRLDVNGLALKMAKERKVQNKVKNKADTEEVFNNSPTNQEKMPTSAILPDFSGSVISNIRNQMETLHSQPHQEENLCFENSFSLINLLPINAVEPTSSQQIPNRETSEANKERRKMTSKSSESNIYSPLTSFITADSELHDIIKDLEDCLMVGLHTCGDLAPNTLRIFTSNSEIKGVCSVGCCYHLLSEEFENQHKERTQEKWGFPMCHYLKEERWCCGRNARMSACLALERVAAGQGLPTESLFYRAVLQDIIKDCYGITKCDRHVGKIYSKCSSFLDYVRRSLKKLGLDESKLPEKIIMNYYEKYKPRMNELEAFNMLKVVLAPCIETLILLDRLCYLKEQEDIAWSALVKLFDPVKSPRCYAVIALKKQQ
# UniProt Q6UB28: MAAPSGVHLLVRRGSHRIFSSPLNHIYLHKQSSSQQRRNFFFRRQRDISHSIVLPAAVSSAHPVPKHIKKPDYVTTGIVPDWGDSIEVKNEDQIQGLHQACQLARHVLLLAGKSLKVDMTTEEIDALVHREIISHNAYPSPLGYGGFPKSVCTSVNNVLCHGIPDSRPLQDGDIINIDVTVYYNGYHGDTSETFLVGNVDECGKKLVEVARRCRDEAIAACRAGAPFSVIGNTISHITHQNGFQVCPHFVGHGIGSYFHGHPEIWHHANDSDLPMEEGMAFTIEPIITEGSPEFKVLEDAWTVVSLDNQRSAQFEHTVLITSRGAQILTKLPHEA
# UniProt Q8NI22: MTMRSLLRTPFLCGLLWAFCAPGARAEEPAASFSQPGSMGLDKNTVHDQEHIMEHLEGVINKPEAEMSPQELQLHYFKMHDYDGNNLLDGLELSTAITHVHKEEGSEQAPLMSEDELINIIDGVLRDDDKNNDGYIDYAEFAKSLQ
# UniProt Q9Y4C4: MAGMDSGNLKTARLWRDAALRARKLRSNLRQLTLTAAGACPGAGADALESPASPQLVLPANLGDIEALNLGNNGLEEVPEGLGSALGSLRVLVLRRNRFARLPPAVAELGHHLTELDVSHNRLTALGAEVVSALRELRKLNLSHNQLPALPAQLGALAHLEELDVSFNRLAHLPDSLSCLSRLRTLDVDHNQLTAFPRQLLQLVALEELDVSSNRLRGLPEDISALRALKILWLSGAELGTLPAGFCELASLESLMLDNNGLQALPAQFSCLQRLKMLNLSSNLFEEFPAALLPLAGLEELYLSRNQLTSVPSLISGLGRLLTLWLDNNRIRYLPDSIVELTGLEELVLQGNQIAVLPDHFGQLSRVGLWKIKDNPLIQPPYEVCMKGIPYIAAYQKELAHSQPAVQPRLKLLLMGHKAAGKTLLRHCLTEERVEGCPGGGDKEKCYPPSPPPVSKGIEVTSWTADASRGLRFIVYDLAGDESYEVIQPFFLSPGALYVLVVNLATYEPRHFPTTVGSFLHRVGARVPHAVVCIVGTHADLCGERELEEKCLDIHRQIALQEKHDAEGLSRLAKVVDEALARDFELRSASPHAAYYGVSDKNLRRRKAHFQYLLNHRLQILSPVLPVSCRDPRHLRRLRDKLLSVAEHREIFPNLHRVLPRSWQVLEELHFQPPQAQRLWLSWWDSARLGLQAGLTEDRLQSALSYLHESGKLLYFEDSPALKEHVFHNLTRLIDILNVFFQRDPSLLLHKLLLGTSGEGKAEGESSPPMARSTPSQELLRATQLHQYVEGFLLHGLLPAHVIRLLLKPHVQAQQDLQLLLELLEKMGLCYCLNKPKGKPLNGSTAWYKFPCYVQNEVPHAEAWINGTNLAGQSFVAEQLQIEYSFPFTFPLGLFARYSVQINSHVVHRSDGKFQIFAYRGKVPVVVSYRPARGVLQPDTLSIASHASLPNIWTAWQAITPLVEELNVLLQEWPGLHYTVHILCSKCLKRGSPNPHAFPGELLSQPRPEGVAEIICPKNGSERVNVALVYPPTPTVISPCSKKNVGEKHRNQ
# UniProt Q7L590: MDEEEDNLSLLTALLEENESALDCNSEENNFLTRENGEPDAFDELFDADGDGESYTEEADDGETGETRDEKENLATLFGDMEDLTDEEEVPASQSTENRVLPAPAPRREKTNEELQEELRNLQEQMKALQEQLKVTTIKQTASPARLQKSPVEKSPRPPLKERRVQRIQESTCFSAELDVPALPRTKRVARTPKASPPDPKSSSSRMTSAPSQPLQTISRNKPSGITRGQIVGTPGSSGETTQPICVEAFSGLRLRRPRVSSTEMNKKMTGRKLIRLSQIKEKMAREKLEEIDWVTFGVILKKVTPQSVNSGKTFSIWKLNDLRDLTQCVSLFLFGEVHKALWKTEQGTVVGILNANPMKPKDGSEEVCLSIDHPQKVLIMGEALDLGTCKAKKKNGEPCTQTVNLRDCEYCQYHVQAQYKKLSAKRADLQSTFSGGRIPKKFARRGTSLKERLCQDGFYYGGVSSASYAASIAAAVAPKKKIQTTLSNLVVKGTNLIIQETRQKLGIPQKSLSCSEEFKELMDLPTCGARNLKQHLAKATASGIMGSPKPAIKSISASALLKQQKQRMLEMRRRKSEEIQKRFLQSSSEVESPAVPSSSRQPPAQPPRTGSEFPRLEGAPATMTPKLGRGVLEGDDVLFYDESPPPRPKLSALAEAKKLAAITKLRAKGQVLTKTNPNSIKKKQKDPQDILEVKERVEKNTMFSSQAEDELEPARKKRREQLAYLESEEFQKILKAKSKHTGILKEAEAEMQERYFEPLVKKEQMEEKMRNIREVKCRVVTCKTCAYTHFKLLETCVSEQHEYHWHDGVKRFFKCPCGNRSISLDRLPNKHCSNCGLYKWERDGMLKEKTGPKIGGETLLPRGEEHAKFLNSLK
# UniProt Q16626: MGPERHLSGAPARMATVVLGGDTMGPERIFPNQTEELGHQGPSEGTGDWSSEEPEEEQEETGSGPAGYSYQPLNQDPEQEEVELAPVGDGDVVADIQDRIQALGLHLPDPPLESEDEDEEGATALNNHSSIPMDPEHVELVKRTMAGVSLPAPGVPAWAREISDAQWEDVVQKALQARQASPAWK
# UniProt P08582: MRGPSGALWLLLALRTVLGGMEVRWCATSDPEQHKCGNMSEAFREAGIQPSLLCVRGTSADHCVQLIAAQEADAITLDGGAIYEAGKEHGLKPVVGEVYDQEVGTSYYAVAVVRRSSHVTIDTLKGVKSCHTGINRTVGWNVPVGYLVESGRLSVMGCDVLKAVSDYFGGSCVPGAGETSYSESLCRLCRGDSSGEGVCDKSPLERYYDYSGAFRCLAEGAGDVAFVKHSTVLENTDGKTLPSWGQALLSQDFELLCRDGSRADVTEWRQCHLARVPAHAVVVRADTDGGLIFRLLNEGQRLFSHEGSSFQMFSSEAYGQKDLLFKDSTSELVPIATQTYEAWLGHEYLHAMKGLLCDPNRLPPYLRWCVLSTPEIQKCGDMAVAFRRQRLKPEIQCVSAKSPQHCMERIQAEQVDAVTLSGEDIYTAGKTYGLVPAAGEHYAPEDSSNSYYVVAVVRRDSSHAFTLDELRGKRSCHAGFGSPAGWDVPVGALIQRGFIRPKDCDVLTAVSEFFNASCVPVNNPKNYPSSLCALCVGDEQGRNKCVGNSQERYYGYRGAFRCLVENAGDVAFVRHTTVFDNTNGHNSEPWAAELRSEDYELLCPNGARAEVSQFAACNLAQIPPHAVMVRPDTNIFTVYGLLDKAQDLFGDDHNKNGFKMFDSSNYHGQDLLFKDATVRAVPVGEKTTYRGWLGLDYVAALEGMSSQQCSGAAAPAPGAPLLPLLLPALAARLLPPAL
# UniProt Q8TCB7: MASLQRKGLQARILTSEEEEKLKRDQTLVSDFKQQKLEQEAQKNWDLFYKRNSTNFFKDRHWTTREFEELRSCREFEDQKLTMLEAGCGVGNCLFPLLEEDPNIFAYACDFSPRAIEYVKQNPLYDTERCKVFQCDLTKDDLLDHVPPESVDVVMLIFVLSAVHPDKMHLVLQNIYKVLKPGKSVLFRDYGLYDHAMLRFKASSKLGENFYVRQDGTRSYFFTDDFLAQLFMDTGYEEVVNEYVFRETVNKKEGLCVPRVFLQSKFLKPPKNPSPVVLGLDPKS
# UniProt Q9P086: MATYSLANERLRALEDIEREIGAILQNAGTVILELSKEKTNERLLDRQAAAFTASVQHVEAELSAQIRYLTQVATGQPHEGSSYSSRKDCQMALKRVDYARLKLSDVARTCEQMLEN
# UniProt Q9Y6X3: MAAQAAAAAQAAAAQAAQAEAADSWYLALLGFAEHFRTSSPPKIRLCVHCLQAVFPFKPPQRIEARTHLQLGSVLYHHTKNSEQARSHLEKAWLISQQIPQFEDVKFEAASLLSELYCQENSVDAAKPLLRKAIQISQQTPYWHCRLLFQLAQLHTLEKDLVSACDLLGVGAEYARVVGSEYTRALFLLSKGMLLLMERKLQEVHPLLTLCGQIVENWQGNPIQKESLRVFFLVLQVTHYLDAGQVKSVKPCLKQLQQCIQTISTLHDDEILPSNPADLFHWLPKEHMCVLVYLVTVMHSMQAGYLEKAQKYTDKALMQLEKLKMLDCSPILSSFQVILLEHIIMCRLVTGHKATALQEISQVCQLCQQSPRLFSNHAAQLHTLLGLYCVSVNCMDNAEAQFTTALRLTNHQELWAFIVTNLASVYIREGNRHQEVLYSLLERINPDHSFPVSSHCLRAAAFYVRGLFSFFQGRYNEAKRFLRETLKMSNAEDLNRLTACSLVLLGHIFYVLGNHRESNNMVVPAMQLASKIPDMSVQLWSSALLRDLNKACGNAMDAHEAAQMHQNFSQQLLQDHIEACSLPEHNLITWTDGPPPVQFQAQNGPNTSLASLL
# UniProt Q9BTE3: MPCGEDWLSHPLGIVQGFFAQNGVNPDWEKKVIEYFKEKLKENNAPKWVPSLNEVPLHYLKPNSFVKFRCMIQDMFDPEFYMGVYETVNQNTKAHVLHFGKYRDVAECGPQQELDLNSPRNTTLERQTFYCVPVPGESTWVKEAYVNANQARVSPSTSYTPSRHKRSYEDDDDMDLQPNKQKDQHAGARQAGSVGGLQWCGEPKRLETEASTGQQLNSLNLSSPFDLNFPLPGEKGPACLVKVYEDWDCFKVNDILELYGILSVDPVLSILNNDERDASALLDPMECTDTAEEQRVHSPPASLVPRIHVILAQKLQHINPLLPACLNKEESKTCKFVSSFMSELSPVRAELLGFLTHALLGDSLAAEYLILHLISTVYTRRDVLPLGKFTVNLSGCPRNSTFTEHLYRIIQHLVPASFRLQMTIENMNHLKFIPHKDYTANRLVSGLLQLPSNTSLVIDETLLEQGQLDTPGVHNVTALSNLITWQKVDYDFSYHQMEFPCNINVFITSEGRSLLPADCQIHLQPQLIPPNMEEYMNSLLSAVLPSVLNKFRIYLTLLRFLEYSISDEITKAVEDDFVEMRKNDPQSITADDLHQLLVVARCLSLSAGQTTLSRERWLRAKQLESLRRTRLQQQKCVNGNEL
# UniProt Q00987, whole entry, looked up: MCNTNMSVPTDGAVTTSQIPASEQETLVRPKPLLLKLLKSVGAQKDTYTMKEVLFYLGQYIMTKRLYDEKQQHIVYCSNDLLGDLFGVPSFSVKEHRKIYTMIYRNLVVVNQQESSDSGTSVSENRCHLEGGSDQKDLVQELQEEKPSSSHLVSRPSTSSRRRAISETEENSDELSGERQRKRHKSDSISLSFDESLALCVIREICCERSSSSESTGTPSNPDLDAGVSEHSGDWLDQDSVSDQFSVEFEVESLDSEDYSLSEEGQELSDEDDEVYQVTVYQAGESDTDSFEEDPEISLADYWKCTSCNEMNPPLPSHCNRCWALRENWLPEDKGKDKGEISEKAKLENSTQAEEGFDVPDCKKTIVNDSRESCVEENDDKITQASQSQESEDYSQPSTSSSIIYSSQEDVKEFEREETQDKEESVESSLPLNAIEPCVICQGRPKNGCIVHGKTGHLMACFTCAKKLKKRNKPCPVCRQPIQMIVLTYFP
# The other results are listed elsewhere or left out.
# Experiments:
# Experiment in all cases: log2 fold change, soluble protein after heating vs DMSO (PISA); higher = thermal stabilisation; K562 lysate, 10 uM; active = over 0.2 and 3.5 SD of the protein, either way, in both replicates (recomputed)
# vemurafenib = compound: CCCS(=O)(=O)Nc1ccc(F)c(C(=O)c2c[nH]c3ncc(-c4ccc(Cl)cc4)cc23)c1F [vemurafenib]
# Procedure, shortened: (§1)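 A 30 min treatment with 10 μM compound was applied to crude K562 extract at 1 mg/mL protein in PBS pH 7.4 with 1 mM MgCl2. Heating for 3 min spanned 48°C-58°C, after which aliquots were pooled, adjusted to 0.5% NP-40 at 4°C and spun at 21,000xg for 90 min. TMTpro 16plex LC-MS/MS of the supernatant, with channel sums equalised, gave values recorded as log-two fold change in thermal stability against solvent controls, from duplicates.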
# barasertib = compound: CCN(CCCOc1ccc2c(Nc3cc(CC(=O)Nc4cccc(F)c4)[nH]n3)ncnc2c1)CCOP(=O)(O)O [barasertib]
# Procedure, shortened: as §1
# [1] = compound: CC[C@@H]1C(=O)N(C)c2cnc(Nc3ccc(C(=O)NC4CCN(C)CC4)cc3OC)nc2N1C1CCCC1
# Procedure, shortened: as §1
# [2] = compound: CCn1c(C(=O)N(C2CC2)C2CC2)cc2c3c(ncn3C)c(Nc3cc(C)n(C)n3)nc21
# Procedure, shortened: as §1
# [3] = compound: CCn1cc(-c2ccnc3[nH]c(-c4cccc(CN(C)C)c4)cc23)c(-c2ccc(NC(=O)N(C)C)cc2)n1
# Procedure, shortened: as §1
# [4] = compound: CN1CCC(CNc2ccc3ncc(-c4cccc(OC(F)(F)F)c4)n3n2)CC1
# Procedure, shortened: as §1
# saracatinib = compound: CN1CCN(CCOc2cc(OC3CCOCC3)c3c(Nc4c(Cl)ccc5c4OCO5)ncnc3c2)CC1 [saracatinib]
# Procedure, shortened: as §1
# alvocidib = compound: CN1CC[C@H](c2c(O)cc(O)c3c(=O)cc(-c4ccccc4Cl)oc23)[C@H](O)C1 [alvocidib]
# Procedure, shortened: as §1
# Tubastatin A = compound: CN1CCc2c(c3ccccc3n2Cc2ccc(C(=O)NO)cc2)C1 [Tubastatin A]
# Procedure, shortened: as §1
# [5] = compound: CNC(=O)C1=CC=CC=C1NC2=NC(=NC=C2Cl)NC3=C(C=C(C=C3)N4CCOCC4)OC
# Procedure, shortened: as §1
# defactinib = compound: CNC(=O)c1ccc(Nc2ncc(C(F)(F)F)c(NCc3nccnc3N(C)S(C)(=O)=O)n2)cc1 [defactinib]
# Procedure, shortened: as §1
# [6] = compound: CNc1nc(-c2ccc3c(N)n[nH]c3c2)cc(N2C[C@@H](C(=O)NC3CCCCC3)CC[C@H]2C)n1
# Procedure, shortened: as §1
# encorafenib = compound: COC(=O)N[C@@H](C)CNc1nccc(-c2cn(C(C)C)nc2-c2cc(Cl)cc(NS(C)(=O)=O)c2F)n1 [encorafenib]
# Procedure, shortened: as §1
# [7] = compound: COC(=O)[C@H](CCSC)NC(=O)C1=C(C=C(C=C1)NC[C@H](CS)N)C2=CC=CC=C2
# Procedure, shortened: as §1
# [8] = compound: CCCS(=O)(=O)Nc1ccc(F)c(C(=O)c2c[nH]c3ncc(Cl)cc23)c1F
# Procedure, shortened: as §1
# volasertib = compound: CC[C@@H]1C(=O)N(C)c2cnc(Nc3ccc(C(=O)N[C@H]4CC[C@H](N5CCN(CC6CC6)CC5)CC4)cc3OC)nc2N1C(C)C [volasertib]
# Procedure, shortened: as §1
# sotrastaurin = compound: CN1CCN(c2nc(C3=C(c4c[nH]c5ccccc45)C(=O)NC3=O)c3ccccc3n2)CC1 [sotrastaurin]
# Procedure, shortened: as §1
# alisertib = compound: COc1cc(Nc2ncc3c(n2)-c2ccc(Cl)cc2C(c2c(F)cccc2OC)=NC3)ccc1C(=O)O [alisertib]
# Procedure, shortened: as §1
# [9] = compound: COc1cc2nc(-c3cc(F)ccc3O)nc(N[C@@H]3CNC[C@H]3C(C)(C)O)c2cc1OC
# Procedure, shortened: as §1
# gefitinib = compound: COc1cc2ncnc(Nc3ccc(F)c(Cl)c3)c2cc1OCCCN1CCOCC1 [gefitinib]
# Procedure, shortened: as §1
Target,log2 fold change (vemurafenib),log2 fold change (barasertib),log2 fold change [1],log2 fold change [2],log2 fold change [3],log2 fold change [4],log2 fold change (saracatinib),log2 fold change (alvocidib),log2 fold change (Tubastatin A),log2 fold change [5],log2 fold change (defactinib),log2 fold change [6],log2 fold change (encorafenib),log2 fold change [7],log2 fold change [8],log2 fold change (volasertib),log2 fold change (sotrastaurin),log2 fold change (alisertib),log2 fold change [9],log2 fold change (gefitinib)
MEGF9 (UniProt Q9H1U4),inactive: 0.003,inactive: 0.036,inactive: 0.265,inactive: -0.029,inactive: 0.265,inactive: -0.014,inactive: 0.124,inactive: -0.107,inactive: -0.003,inactive: -0.055,inactive: 0.031,inactive: 0.078,inactive: 0.097,inactive: -0.064,,,,,,
MFSD12 isoform 3 (UniProt Q6NUT3),inactive: -0.073,,,,inactive: -0.16,inactive: -0.018,inactive: 0.103,inactive: 0.024,,inactive: -0.051,inactive: 0.057,inactive: -0.041,,,inactive: 0.068,inactive: 0.038,inactive: -0.012,inactive: -0.084,inactive: 0.13,inactive: -0.031
MCM3AP (UniProt O60318),inactive: 0.054,inactive: 0.263,,inactive: 0.047,inactive: -0.024,inactive: -0.246,inactive: 0.054,inactive: 0.133,inactive: -0.11,inactive: -0.041,inactive: -0.109,inactive: 0.071,,,inactive: 0.011,inactive: 0.027,,inactive: 0.075,inactive: 0.122,inactive: 0.101
METTL25 (UniProt Q8N6Q8),inactive: 0.165,inactive: 0.025,inactive: 0.143,inactive: 0.055,,,inactive: 0.004,,inactive: -0.035,,inactive: -0.017,inactive: -0.021,inactive: 0.083,inactive: -0.03,inactive: 0.027,inactive: 0.079,,,inactive: -0.051,
METAP1D (UniProt Q6UB28),inactive: 0,inactive: -0.007,inactive: 0.149,inactive: -0.019,inactive: -0.034,inactive: 0.001,inactive: 0.049,inactive: -0.016,inactive: 0.009,inactive: -0.08,inactive: -0.035,inactive: 0.081,inactive: 0.015,inactive: -0.065,inactive: -0.051,inactive: -0.019,inactive: -0.089,inactive: 0.008,inactive: 0.076,inactive: 0.12
MEF2C isoform 2 (UniProt Q06413),inactive: 0.007,,inactive: 0.137,,inactive: 0.068,inactive: -0.077,inactive: 0.011,inactive: 0.082,,,inactive: 0,inactive: 0.022,inactive: 0.056,inactive: -0.023,inactive: -0.061,inactive: 0.07,inactive: 0.124,inactive: -0.043,inactive: 0.043,inactive: 0.05
MCEE (UniProt Q96PE7),inactive: -0.003,inactive: 0.028,inactive: 0.06,inactive: 0.1,inactive: -0.062,inactive: -0.027,inactive: -0.007,inactive: 0.048,inactive: -0.014,inactive: 0.055,inactive: 0.018,inactive: 0.046,inactive: 0.047,inactive: -0.013,inactive: 0.08,inactive: -0.032,inactive: 0.004,inactive: 0.051,inactive: -0.014,inactive: -0.066
MCFD2 (UniProt Q8NI22),inactive: 0.002,inactive: 0.371,inactive: 0.037,inactive: -0.024,inactive: -0.278,inactive: -0.241,inactive: 0.017,inactive: 0.114,inactive: 0.071,inactive: -0.014,inactive: 0.215,inactive: 0.012,inactive: -0.02,inactive: 0.033,inactive: -0.054,inactive: 0.062,inactive: 0,inactive: 0.064,inactive: -0.027,inactive: -0.19
MFSD8 (UniProt Q8NHS3),inactive: 0.036,inactive: 0.186,,inactive: 0.017,inactive: -0.14,inactive: 0.07,,inactive: 0.025,inactive: -0.059,inactive: -0.088,inactive: -0.005,,,,inactive: 0.088,inactive: -0.023,inactive: 0.054,inactive: -0.134,inactive: -0.13,inactive: -0.121
MFHAS1 (UniProt Q9Y4C4),inactive: 0.005,inactive: -0.099,,inactive: -0.051,,,inactive: 0.081,,inactive: 0.214,inactive: -0.072,inactive: 0.024,inactive: 0.211,,,inactive: 0.12,inactive: 0.087,inactive: -0.108,,inactive: 0.016,
MCM10 (UniProt Q7L590),inactive: 0.107,inactive: 0.022,,inactive: 0.012,inactive: 0.101,inactive: -0.02,inactive: 0.001,inactive: 0.053,inactive: 0.023,inactive: 0.245,inactive: 0.047,inactive: 0.137,,,inactive: -0.02,inactive: 0.025,inactive: 0.021,inactive: -0.029,inactive: -0.047,inactive: 0.027
MEA1 (UniProt Q16626),inactive: 0.071,inactive: 0.018,inactive: 0.042,inactive: 0.021,inactive: -0.08,inactive: -0.027,inactive: 0,inactive: 0,inactive: 0.093,inactive: 0.077,inactive: 0.035,inactive: 0.039,inactive: -0.046,inactive: 0.032,inactive: -0.041,inactive: 0.062,inactive: -0.003,inactive: 0.065,inactive: -0.085,inactive: 0.059
MELTF (UniProt P08582),inactive: 0.032,inactive: -0.026,inactive: 0.043,,inactive: 0.097,inactive: 0.037,,inactive: 0.025,,inactive: 0.079,inactive: 0.031,,inactive: 0.02,inactive: 0.045,,,inactive: 0.174,,,
METTL6 (UniProt Q8TCB7),inactive: -0.091,inactive: 0.155,inactive: 0.089,inactive: 0.263,inactive: -0.015,inactive: 0.042,inactive: -0.022,inactive: -0.098,inactive: -0.362,,inactive: -0.034,inactive: 0.122,inactive: -0.028,inactive: -0.145,inactive: 0.059,inactive: -0.057,inactive: 0.031,,inactive: 0.021,
MED11 (UniProt Q9P086),inactive: 0.366,inactive: 0.158,,,,,inactive: 0.131,,,inactive: 0.166,inactive: -0.077,inactive: -0.243,,,,,inactive: -0.024,,,
MCOLN1 (UniProt Q9GZU1),inactive: 0.038,inactive: -0.064,,inactive: 0.044,inactive: 0.022,inactive: 0.192,inactive: 0.078,inactive: 0.016,inactive: 0.107,inactive: 0.068,inactive: -0.004,inactive: -0.026,,,inactive: 0.017,inactive: 0.051,inactive: -0.013,inactive: 0.07,inactive: -0.099,inactive: -0.301
MDM1 (UniProt Q8TC05),inactive: 0.024,,inactive: -0.05,inactive: 0.075,active: -1.5,active: 0.512,inactive: 0.013,inactive: -0.527,inactive: 0.007,inactive: -0.071,inactive: -0.126,inactive: -0.328,inactive: 0,inactive: -0.12,inactive: 0.053,inactive: 0.024,,inactive: 0.018,inactive: -0.031,inactive: 0.14
MAU2 (UniProt Q9Y6X3),inactive: 0.031,inactive: 0.03,inactive: -0.101,inactive: 0.054,inactive: 0.046,inactive: 0.027,,inactive: 0.035,inactive: 0.016,inactive: 0.043,inactive: 0.145,,inactive: 0,inactive: 0.056,inactive: -0.049,inactive: 0.025,inactive: -0.029,,inactive: 0.025,
MCMBP isoform 2 (UniProt Q9BTE3),inactive: -0.039,inactive: -0.096,inactive: 0.059,inactive: 0.047,,,inactive: -0.036,,inactive: -0.142,inactive: 0.102,inactive: 0.089,inactive: 0.199,inactive: -0.015,inactive: 0.124,inactive: 0.081,inactive: -0.004,inactive: -0.015,inactive: 0.067,inactive: -0.091,inactive: -0.082
MDM2 isoform 11 (UniProt Q00987),inactive: -0.035,inactive: -0.238,,inactive: -0.03,inactive: 0.024,inactive: -0.038,,inactive: -0.127,inactive: 0.15,inactive: 0.041,inactive: 0.158,,,,,,inactive: 0.053,,,

# Quoted at random: 2 entries already listed
Target,log2 fold change (vemurafenib),log2 fold change (barasertib),log2 fold change [1],log2 fold change [2],log2 fold change [3],log2 fold change [4],log2 fold change (saracatinib),log2 fold change (alvocidib),log2 fold change (Tubastatin A),log2 fold change [5],log2 fold change (defactinib),log2 fold change [6],log2 fold change (encorafenib),log2 fold change [7],log2 fold change [8],log2 fold change (volasertib),log2 fold change (sotrastaurin),log2 fold change (alisertib),log2 fold change [9],log2 fold change (gefitinib)
MDM1 (UniProt Q8TC05),inactive: 0.024,,inactive: -0.05,inactive: 0.075,active: -1.5,active: 0.512,inactive: 0.013,inactive: -0.527,inactive: 0.007,inactive: -0.071,inactive: -0.126,inactive: -0.328,inactive: 0,inactive: -0.12,inactive: 0.053,inactive: 0.024,,inactive: 0.018,inactive: -0.031,inactive: 0.14
MFSD8 (UniProt Q8NHS3),inactive: 0.036,inactive: 0.186,,inactive: 0.017,inactive: -0.14,inactive: 0.07,,inactive: 0.025,inactive: -0.059,inactive: -0.088,inactive: -0.005,,,,inactive: 0.088,inactive: -0.023,inactive: 0.054,inactive: -0.134,inactive: -0.13,inactive: -0.121
